Consider one substance from patent US7411039B2 (Novo Nordisk A/S, priority 2002, dated 2008).

This data set is described as follows: general procedure: Fmoc solid-phase peptide synthesis; Wang resin; HBTU. The following applies: whole synthesis, scale 0.25 mmol.

With “D3E/L17K((S)-4-carboxy-4-(hexadecanoylamino)butanoyl)/K30R/D33E-GLP-2(1-33)”, the isolated mass came to 29.3 mg.
